# From publication PMC4396377
# No constants are given. Whether binding was seen depends on the method and setting. For some assays here: Binding seen in cells or lysates may run through a third protein. Some entries that bind do so weakly or less than the wild type.
# T1: IFN regulatory factor 3 (IRF3), endogenous (mouse (endogenous in MEFs)), P70671
# T1 chain: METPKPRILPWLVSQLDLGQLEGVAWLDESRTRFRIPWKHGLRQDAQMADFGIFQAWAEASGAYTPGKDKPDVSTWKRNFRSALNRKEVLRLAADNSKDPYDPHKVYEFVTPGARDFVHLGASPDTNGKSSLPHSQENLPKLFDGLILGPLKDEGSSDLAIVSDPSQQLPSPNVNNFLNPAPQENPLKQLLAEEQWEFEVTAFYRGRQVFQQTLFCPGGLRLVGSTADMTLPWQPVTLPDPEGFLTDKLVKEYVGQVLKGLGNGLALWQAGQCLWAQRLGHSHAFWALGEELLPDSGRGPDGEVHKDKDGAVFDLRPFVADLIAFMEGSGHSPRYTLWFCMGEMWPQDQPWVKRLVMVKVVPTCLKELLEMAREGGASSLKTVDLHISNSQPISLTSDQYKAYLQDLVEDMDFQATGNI
# T2: Toll-like receptor 3 (TLR3), endogenous (mouse (endogenous in MEFs, RAW264.7 and BMDMs)) (UniProt Q99MB1)
# T2 sequence: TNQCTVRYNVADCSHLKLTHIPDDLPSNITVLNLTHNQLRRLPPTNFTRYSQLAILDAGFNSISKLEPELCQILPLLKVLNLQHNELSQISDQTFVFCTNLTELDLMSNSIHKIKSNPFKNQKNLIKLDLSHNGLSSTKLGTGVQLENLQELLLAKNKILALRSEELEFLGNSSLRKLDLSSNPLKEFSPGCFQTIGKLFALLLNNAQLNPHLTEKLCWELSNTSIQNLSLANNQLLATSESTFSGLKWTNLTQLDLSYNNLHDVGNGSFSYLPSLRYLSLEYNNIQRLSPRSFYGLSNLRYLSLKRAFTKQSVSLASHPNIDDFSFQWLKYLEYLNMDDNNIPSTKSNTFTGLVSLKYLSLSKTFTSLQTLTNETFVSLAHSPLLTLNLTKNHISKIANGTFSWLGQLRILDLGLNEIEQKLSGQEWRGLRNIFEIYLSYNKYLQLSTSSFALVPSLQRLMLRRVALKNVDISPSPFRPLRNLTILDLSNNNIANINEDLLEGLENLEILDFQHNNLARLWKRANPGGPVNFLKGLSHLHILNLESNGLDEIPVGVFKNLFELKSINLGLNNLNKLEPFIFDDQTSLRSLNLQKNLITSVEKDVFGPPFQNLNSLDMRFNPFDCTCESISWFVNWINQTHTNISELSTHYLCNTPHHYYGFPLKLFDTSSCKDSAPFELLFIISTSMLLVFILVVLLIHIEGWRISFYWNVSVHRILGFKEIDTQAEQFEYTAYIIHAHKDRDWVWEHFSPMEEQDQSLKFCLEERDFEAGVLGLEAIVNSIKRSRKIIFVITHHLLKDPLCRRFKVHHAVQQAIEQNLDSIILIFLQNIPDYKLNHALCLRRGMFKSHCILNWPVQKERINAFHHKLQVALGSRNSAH
# Tests used:
# [1] = target: T1, IFN regulatory factor 3 (IRF3), …; test: native gel or EMSA; Gsk3b+/+ and Gsk3b−/− MEFs stimulated with 10 μg/ml poly I:C for 1 h; lysates on 7.5% native gels with deoxycholate, blotted; Supplementary Fig. 4c; details: remark: other sources report otherwise
# [2] = target: T2, Toll-like receptor 3 (TLR3), endogenous (mouse (endogenous in MEFs, RAW264.7 and BMDMs)); test: co-IP; Gsk3b+/+ MEFs stimulated with 10 μg/ml poly I:C for 10 min; immunoprecipitation with an anti-TLR3 antibody, western blotting; lysis buffer 50 mM Tris-HCl pH 8.0, 150 mM NaCl, 0.5% deoxycholate, 1% NP-40; 4 °C
binding [1],binding [2],Binder
binds,–,"IFN regulatory factor 3 (IRF3), endogenous, P70671 1-419 (protein) METPKPRILPWLVSQLDLGQLEGVAWLDESRTRFRIPWKHGLRQDAQMADFGIFQAWAEASGAYTPGKDKPDVSTWKRNFRSALNRKEVLRLAADNSKDPYDPHKVYEFVTPGARDFVHLGASPDTNGKSSLPHSQENLPKLFDGLILGPLKDEGSSDLAIVSDPSQQLPSPNVNNFLNPAPQENPLKQLLAEEQWEFEVTAFYRGRQVFQQTLFCPGGLRLVGSTADMTLPWQPVTLPDPEGFLTDKLVKEYVGQVLKGLGNGLALWQAGQCLWAQRLGHSHAFWALGEELLPDSGRGPDGEVHKDKDGAVFDLRPFVADLIAFMEGSGHSPRYTLWFCMGEMWPQDQPWVKRLVMVKVVPTCLKELLEMAREGGASSLKTVDLHISNSQPISLTSDQYKAYLQDLVEDMDFQATGNI"
–,binds,"toll-interleukin 1 receptor homology-domain-containing adapter-inducing interferon-β (TRIF), endogenous (protein, UniProt Q80UF7 1-732) MDNPGPSLRGAFGILGALERDRLTHLKHKLGSLCSGSQESKLLHAMVLLALGQDTEARVSLESLKMNTVAQLVAHQWADMETTEGPEEPPDLSWTVARLYHLLAEENLCPASTRDMAYQVALRDFASQGDHQLGQLQNEAWDRCSSDIKGDPSGFQPLHSHQGSLQPPSASPAVTRSQPRPIDTPDWSWGHTLHSTNSTASLASHLEISQSPTLAFLSSHHGTHGPSKLCNTPLDTQEPQLVPEGCQEPEEISWPPSVETSVSLGLPHEISVPEVSPEEASPILPDALAAPDTSVHCPIECTELSTNSRSPLTSTTESVGKQWPITSQRSPQVPVGDDSLQNTTSSSPPAQPPSLQASPKLPPSPLSSASSPSSYPAPPTSTSPVLDHSETSDQKFYNFVVIHARADEQVALRIREKLETLGVPDGATFCEEFQVPGRGELHCLQDAIDHSGFTILLLTASFDCSLSLHQINHALMNSLTQSGRQDCVIPLLPLECSQAQLSPDTTRLLHSIVWLDEHSPIFARKVANTFKTQKLQAQRVRWKKAQEARTLKEQSIQLEAERQNVAAISAAYTAYVHSYRAWQAEMNKLGVAFGKNLSLGTPTPSWPGCPQPIPSHPQGGTPVFPYSPQPPSFPQPPCFPQPPSFPQPPSFPLPPVSSPQSQSFPSASSPAPQTPGPQPLIIHHAQMVQLGVNNHMWGHTGAQSSDDKTECSENPCMGPLTDQGEPLLETPE"
